Article PMC13280575
Results are given in words; binding and its absence hold for the method and conditions named. In cells and extracts the contact can be indirect. A result given as binding can be weak or reduced; the word gives no strength.

By UniProt entry, the sequences of proteins in these tests, tags left out. Where a name states a change or a piece, a line headed by the entry shows the natural chain unless it says otherwise. Residues count along the entry.
UniProt P14859: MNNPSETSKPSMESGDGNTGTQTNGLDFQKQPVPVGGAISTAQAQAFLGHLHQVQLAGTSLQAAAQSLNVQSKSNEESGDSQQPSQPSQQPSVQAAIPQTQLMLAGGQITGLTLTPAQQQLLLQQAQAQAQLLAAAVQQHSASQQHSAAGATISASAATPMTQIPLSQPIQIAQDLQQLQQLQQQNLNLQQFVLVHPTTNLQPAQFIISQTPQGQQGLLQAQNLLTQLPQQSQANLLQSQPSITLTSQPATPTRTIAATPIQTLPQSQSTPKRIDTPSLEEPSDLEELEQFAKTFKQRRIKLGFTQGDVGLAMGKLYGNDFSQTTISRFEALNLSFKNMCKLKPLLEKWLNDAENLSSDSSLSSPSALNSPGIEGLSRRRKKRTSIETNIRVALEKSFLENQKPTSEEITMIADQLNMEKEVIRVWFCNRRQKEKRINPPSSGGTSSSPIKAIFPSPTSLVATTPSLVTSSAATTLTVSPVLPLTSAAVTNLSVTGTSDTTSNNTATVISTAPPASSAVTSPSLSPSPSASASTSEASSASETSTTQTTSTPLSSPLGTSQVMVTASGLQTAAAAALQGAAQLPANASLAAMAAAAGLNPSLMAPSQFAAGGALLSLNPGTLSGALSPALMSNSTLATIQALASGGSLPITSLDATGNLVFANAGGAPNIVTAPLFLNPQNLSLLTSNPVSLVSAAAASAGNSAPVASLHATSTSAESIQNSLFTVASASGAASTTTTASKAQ
UniProt P38398, residues 1-400: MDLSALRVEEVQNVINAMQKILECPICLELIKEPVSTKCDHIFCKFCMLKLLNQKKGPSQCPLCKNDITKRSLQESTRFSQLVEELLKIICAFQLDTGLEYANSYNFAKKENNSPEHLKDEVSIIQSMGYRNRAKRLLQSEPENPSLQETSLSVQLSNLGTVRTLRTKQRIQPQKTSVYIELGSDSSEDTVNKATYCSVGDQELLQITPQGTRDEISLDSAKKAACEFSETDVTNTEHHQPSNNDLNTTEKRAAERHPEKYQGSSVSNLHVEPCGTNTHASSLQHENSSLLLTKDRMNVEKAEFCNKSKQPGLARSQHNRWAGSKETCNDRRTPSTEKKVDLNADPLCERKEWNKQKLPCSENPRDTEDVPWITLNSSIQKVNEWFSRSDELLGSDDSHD

Molecular target: FLAG-POU domain of POU2F1(OCT-1), in vitro translated (human) (UniProt P14859)
Test: pull-down; in vitro translated FLAG-POU on anti-FLAG M2 agarose beads, alone or first with in vitro translated (myc)6-BRCA1 fragment (1 h, 4 °C), then [35S]-labelled (myc)6-PER2 (2 h); autoradiography

Substance: (myc)6-BRCA1 (1–400), in vitro translated (from UniProt P38398 1-400) (domain or fragment)
- binding: binds
